PubChem BioAssay AID1259308 – NCATS | 2017
The whole screen tested about 59,000 reagents; this is an unselected part. About 1,510 of all reagents (2.6%) were called active. 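Calls use total luciferase alone and ignore viability, so some active siRNAs may act by altering cell number.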 Reagents against one gene are numbered here. Further read-outs or replicates are left out here.

- Screen: 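Genes whose loss raises luciferase production in HEK293 cells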 (primary screen)
- System: human HEK293 embryonic kidney cells stably expressing firefly luciferase (HEK-CMV-Luc2-Hygro)
- Knock-down reagent: single siRNA against human genes, 0.8 pmol siRNA per well
- Duration: 72 h
- Measurement: 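Luciferase light (ONE-Glo) measured on one replicate plate set and viability (CellTiter-Glo) on the other, scaled to a negative control siRNA, with robust z-scores and luciferase per cell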
- Direction: total luciferase, z-score: higher = more reporter protein produced
- Active means: 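Active when the median/MAD z-score for overall luciferase is greater than 3; a gene was taken forward for validation with new siRNAs if at least two of its three siRNAs passed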
- Meaning of the calls: active = raised luciferase; inactive = no rise

total luciferase, z-score, by gene symbol and reagent
GRPEL1 (GrpE like 1, mitochondrial): #1 0.323 inactive; #2 0.169 inactive; #3 -0.0326 inactive
M6PR (mannose-6-phosphate receptor, cation dependent): #1 3.4 active; #2 -0.103 inactive; #3 -0.731 inactive
PATE1 (prostate and testis expressed 1): #1 -1.2 inactive; #2 -3.2 inactive; #3 -0.742 inactive

Called active (from the list above):
total luciferase, z-score, by gene symbol and reagent
M6PR (mannose-6-phosphate receptor, cation dependent): #1 3.4 active

The list goes on.
total luciferase, z-score, by gene symbol and reagent
PROC (protein C, inactivator of coagulation factors Va and VIIIa): #1 0.59 inactive; #2 -1.13 inactive; #3 1.03 inactive
ANKRD26 (ankyrin repeat domain 26): #1 0.881 inactive; #2 -0.218 inactive; #3 2.46 inactive
AQP6 (aquaporin 6): #1 0.68 inactive; #2 -0.0129 inactive; #3 -0.0389 inactive
ZMYM5 (zinc finger MYM-type containing 5): #1 1.92 inactive; #2 1.58 inactive; #3 -0.729 inactive
SPOCD1 (SPOC domain containing 1): #1 -0.698 inactive; #2 1.34 inactive; #3 -1.32 inactive
